Measurements reported in PubChem BioAssay AID504793 (Drosophila RNAi Screening Center, 2011).

Assay: 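Whole-genome screen for parts of the DNA damage checkpoint at G2/M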 (primary screen)
Cells: Drosophila S2R+ cells
Reagent: long dsRNA against Drosophila genes, about 0.25 µg dsRNA per well
Timing: 4 days of dsRNA, then 4 hours of drug before read-out
Conditions: doxorubicin 0.5 µM for 4 hours to cause double-strand breaks, in cells also given a low, harmless dose of dsRNA against nbs to sensitise the assay
Read-out: 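Per-well count of mitotic cells stained for phospho-histone H3 after doxorubicin exposure, used as mitotic index; counts are raw and not normalised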
Scale: mitotic cells: higher = more cells in mitosis, weaker G2 arrest
Rule for the call: 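a call needs confirmation in secondary tests, with other dsRNAs and a check of mitotic timing without damage, not just a high primary count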
Calls: active = confirmed in follow-up tests; inactive = not confirmed
The screen tested about 23,000 reagents; this is an unselected part of those with a known target gene and a result. Over the whole deposit, 62 (0.27%) were called active. 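Calls come from follow-up tests whose scores are not deposited, so confirmed genes may have low counts here; counts are not normalised per plate.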 Raw values vary from plate to plate and are shown uncorrected. Reagents against one gene are numbered here. A plus sign joins genes that one reagent is predicted to hit.

gene,reagent no.,"mitotic cells, replicate 1","mitotic cells, replicate 2",call
Marf1,1,4,,inactive
Marf1,2,5,,inactive
p115,1,11,,inactive
CG11854,1,6,,inactive
CG3436,1,5,,inactive
fu,1,5,,inactive
fu,2,6,,inactive
CG31463,1,1,,inactive
CG31463,2,8,,inactive
CG4328,1,14,,inactive
CG4328,2,5,,inactive
CG10345,1,4,,inactive
CG31612,1,8,,inactive
CG31612,2,11,,inactive
spd-2,1,7,,inactive
spd-2,2,9,,inactive
CG13996,1,8,,inactive
Impbeta11,1,4,,inactive
Evi5,1,4,,inactive
Evi5,2,4,,inactive
CG4744,1,5,,inactive
CG4744,2,2,,inactive
Prosalpha6T,1,3,,inactive
CG9961,1,6,,inactive
CG9961,2,8,,inactive
Ephrin,1,11,,inactive
Adat1,1,6,,inactive
Adat1,2,6,,inactive
CG31054 (retired record) + CG4849,1,8,,inactive
Or69a,1,7,,inactive
Or69a,2,4,,inactive
CG31268,1,4,,inactive
Naa35,1,7,,inactive
Naa35,2,3,,inactive
ogre,1,4,,inactive
ogre,2,8,,inactive
CG14720,1,4,,inactive
CG15499 (retired record),1,6,,inactive
CG14491,1,9,,inactive
CG14491,2,4,,inactive
CG13716,1,14,,inactive
CG13716,2,9,,inactive
Prip,1,10,,inactive
Prip,2,7,,inactive
TBC1D5,1,8,,inactive
TBC1D5,2,7,,inactive
BomS6,1,6,,inactive
BomS6,2,5,,inactive
CG17572,1,6,,inactive
Ance-4,1,4,,inactive
CG4629,1,6,,inactive
CG4629,2,4,,inactive
CG11123,1,16,,inactive
CG11123,2,4,,inactive
PPYR1,1,6,,inactive
PPYR1,2,3,,inactive
CG17328,1,11,,inactive
CG17328,2,15,,inactive
CG17328,3,6,,inactive
Nepl8,1,2,,inactive
CG4282,1,9,,inactive
CG8620,1,2,,inactive
CG8620,2,9,,inactive
CG13039,1,,,inactive
CG11929,1,8,,inactive
CG5402,1,13,,inactive
CG5402,2,5,,inactive
CG17159 + CG17162,1,9,,inactive
CG17159 + CG17162,2,2,,inactive
CG8679,1,,,inactive
CG30088,1,3,,inactive
CG30088,2,6,,inactive
CG4661,1,11,,inactive
smp-30,1,4,,inactive
smp-30,2,7,,inactive
Agxt,1,,,inactive
Agxt,2,2,,inactive
VhaAC45RP,1,8,,inactive
VhaAC45RP,2,2,,inactive
squ,1,2,,inactive
CG14100,1,6,,inactive
Lmpt,1,11,,inactive
Lmpt,2,3,,inactive
Lmpt,3,12,,inactive
Lmpt,4,3,,inactive
Lmpt,5,2,,inactive
Lmpt,6,14,,inactive
Lmpt,7,6,,inactive
Lmpt,8,3,,inactive
Lmpt,9,7,,inactive
Lmpt,10,4,,inactive
RpL32,1,6,10,inactive
RpL32,2,13,,inactive
CycH,1,,,inactive
CycH,2,5,,inactive
TpnC4,1,2,,inactive
CG3769,1,2,,inactive
Ir94d,1,11,,inactive
CG3355,1,5,,inactive
ppk26,1,5,,inactive
ppk26,2,6,,inactive
sowah,1,8,,inactive
sowah,2,1,,inactive
CG4408,1,4,,inactive
exu,1,15,,inactive
CG31776,1,4,,inactive
enc,1,6,,inactive
enc,2,7,,inactive
d4,1,5,,inactive
d4,2,18,,inactive
d4,3,9,,inactive
